# PubChem BioAssay AID504467 (National Center for Advancing Translational Sciences (NCATS), 2011)
# In all, about 330,000 compounds went through this assay and about 7,700 (2.3%) were called active. Inconclusive means that the source gave no clear call. Such entries were picked first, then a sample of the others. The call rests on the fitted dose curve; in most records, active means well fitted inhibition curve with a large enough effect; inconclusive means small, poorly fitted or top-dose-only effect, or effect the other way; inactive means flat fitted curve, though single readings scatter. Potencies beside an inconclusive call are fits to weak or partial responses and may not hold up.
# Assay: qHTS screen for small molecules that inhibit ELG1-dependent DNA repair in human embryonic kidney (HEK293T) cells expressing luciferase-tagged ELG1; further: nearly all actives have a fitted effect of over 55% in size
# Settings: HEK293T ELG1-luciferase reporter, luminescence, 16 h, DNA damage induced by 5-fluorouridine; series mostly up to 46.1 µM
# Outline: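 5-Fluorouridine DNA damage + compound/DMSO, 2,000 cells/well, 16 h, 37 °C/5% CO2. ONE-Glo, 30 min RT, luminescence. Readout = decrease in reporter signal.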
# Potency means the concentration at half of the fitted maximal effect.
row,Structure (SMILES),Potency
1,CCCOc1cccc(C(=O)N/N=C/c2ccoc2)c1,"inconclusive: 18.3 µM [activator, partial curve]"
2,CC(C)OCCCNC(=O)c1ccc(Br)cc1,"inconclusive: 20.6 µM [activator, partial curve]"
3,COCCCN(C(=O)c1cc(-c2ccco2)nc2ccccc12)c1c(N)n(Cc2ccccc2)c(=O)[nH]c1=O,"inconclusive: 25.9 µM [activator, single point]"
4,CCCCC(=O)Nc1ncc(S(=O)(=O)c2ccc([N+](=O)[O-])cc2)s1,inactive
5,COC(=O)/C(=C(O)\C=C\c1ccccc1[N+](=O)[O-])c1nc2ccccc2[nH]1,"inconclusive: 29.1 µM [inhibitor, single point]"
6,COc1cccc(OCC(Cn2c(C)nc3ccccc32)OC(C)=O)c1 (stereo not drawn),"inconclusive: 16.4 µM [inhibitor, partial curve]"
7,O=C(CCc1nc(-c2ccccc2)no1)N1CCCC1,"inconclusive: 0.0052 µM [activator, full curve, poor fit]"
8,CCOc1ccc(CN(C(=O)c2oc3cc(C)ccc3c2C)C2CCS(=O)(=O)C2)cc1 (stereo not drawn),"inconclusive: 23.1 µM [inhibitor, partial curve]"
9,Cc1cc(C)cc(NC(=O)c2ccc(CSc3nnc(C)s3)cc2)c1,"inconclusive: 29.1 µM [activator, single point]"
10,CCN(C(=O)COC(=O)CCC(=O)c1cccs1)C1CCCCC1,inactive
11,CC1=C(C(=O)OC(C)C)C(c2ccc(Br)s2)NC(=O)N1C (stereo not drawn),"inconclusive: 17.8 µM [inhibitor, single point]"
12,CC(C)CC(=O)NC(=S)NCCc1ccccc1,inactive
13,Cc1cc(C)c(NC(=O)CN(C)CC(=O)Nc2cccc(S(=O)(=O)N(C)c3ccccc3)c2)c(C)c1,"inconclusive: 5.8 µM [inhibitor, single point]"
14,CC(=O)Nc1ccc(S(=O)(=O)Nc2ccc3c(c2)CCC3)cc1,"inconclusive: 6.51 µM [inhibitor, full curve, poor fit]"
15,CCCCC(=O)NC1(C(F)(F)F)NC(=O)N(Cc2ccccc2)C1=O (stereo not drawn),"inconclusive: 11.6 µM [inhibitor, partial curve, poor fit]"
16,CC(=O)CC(=O)NC(=NC1CCCCC1)Nc1nc(C)cc(C)n1,active: 10.3 µM
17,Cc1ccc(C(=O)Nc2ncc([N+](=O)[O-])s2)cc1,"inconclusive: 0.13 µM [activator, full curve]"
18,CSCCC(NS(=O)(=O)c1ccccc1F)C(=O)NCc1cccs1 (stereo not drawn),inactive
19,COc1ccc(/C=N/NC(=O)c2cc(-c3ccc4c(c3)OCO4)n[nH]2)cc1OC,active: 14.6 µM
20,CC1(C)CC2(CCCN(CC(O)(c3ccccc3)c3ccccc3)C2)CCO1 (stereo not drawn),"inconclusive: 20.6 µM [inhibitor, single point]"
21,CN(C)c1ccccc1-c1csc(N2CCC(C(N)=O)CC2)n1,"inconclusive: 1.03 µM [activator, full curve]"
22,COc1ccc(N2CCN(Cc3nc4scc(-c5ccccc5)c4c(=O)[nH]3)CC2)cc1,"inconclusive: 18.4 µM [inhibitor, single point]"
23,CC(=O)NCCC(=O)Nc1nc(-c2ccc3c(c2)OCCO3)cs1,"inconclusive: 20.6 µM [activator, single point]"

row,Structure (SMILES),Potency
1,CCOC(=O)c1ccc2nc(NC(=O)C(C)C)sc2c1,"inconclusive: 2.31 µM [activator, full curve]"
2,COc1ccc(S(=O)(=O)n2nc(-n3c(C)ccc3C)c3c(F)cccc32)cc1OC,"inconclusive: 13 µM [inhibitor, partial curve, poor fit]"
3,Cc1cc(Nc2ccccc2)nc(N2CCN(C(=O)c3ccc4c(c3)OCO4)CC2)n1,"inconclusive: 10 µM [inhibitor, partial curve, poor fit]"
4,CCN(CC)C(=O)CN1C(=O)C2(OCC(C)(C)CO2)c2ccccc21,inactive
5,CCC[C@@H]1C[C@@]1(CCC)[C@@H](NC(=O)c1ccccc1)c1ccc(C(=O)OC)cc1,"inconclusive: 14.6 µM [activator, single point]"
6,CCC1(CC)Cc2ccccc2C(Nc2c(C)n(C)n(-c3ccccc3)c2=O)=N1,"inconclusive: 29.1 µM [activator, single point]"
7,O=C(OCC(=O)N1CCN(C(=O)c2ccco2)CC1)c1ccccc1O,"inconclusive: 18.4 µM [activator, single point]"
8,Cc1ccc(CC(=O)Nc2nc3ccccc3s2)cc1,"inconclusive: 16.4 µM [activator, single point]"
9,Cc1ccc(S(=O)(=O)Nc2ccc3c(c2)n(C)c(=O)n3C)cc1,"inconclusive: 2.59 µM [activator, partial curve]"
10,Clc1cccc(/C=N/N2CCN(Cc3ccccc3)CC2)c1,"inconclusive: 20.6 µM [activator, partial curve]"
11,CC1(c2nnc(-c3ccc(F)cc3)o2)CC(c2ccc([N+](=O)[O-])cc2)=NO1 (stereo not drawn),inactive
12,CCO[C@H]1OC(C(=O)NCc2ccccc2)=C[C@@H](c2cn(C(C)=O)c3ccccc23)[C@@H]1CCCO,"inconclusive: 20.6 µM [inhibitor, single point]"
13,Clc1ccc(CNCCCSc2ncccn2)cc1Cl,inactive
14,Cc1cccnc1NC(=O)COc1ccc2oc3c(c2c1)CCCC3,"inconclusive: 20.6 µM [activator, single point]"
15,Cc1c(-c2nnc(-c3ccc(C(F)(F)F)cc3)o2)cnn1-c1ccccc1,"inconclusive: 10.3 µM [activator, partial curve, poor fit]"
16,O=C(Cc1ccccc1F)NC1CCCN(Cc2ccc(Cl)cc2)C1 (stereo not drawn),inactive
17,O=C(CCCN1C(=O)c2ccccc2C1=O)Nc1nccs1,"inconclusive: 29.1 µM [activator, single point]"
18,Cc1onc2c(=O)n(-c3ccccc3)nc(-c3ccccc3)c12,inactive
19,C/C(=N\O)c1ccc(N2C(=O)C3CC=C(Cl)CC3C2=O)cc1 (stereo not drawn),"inconclusive: 16.4 µM [activator, partial curve]"
20,CCN(CC)CC#CCC(O)(c1ccccc1)c1ccccc1,inactive
21,COc1cccc(OC)c1C(=O)NC(=S)Nc1cc(-c2nc3ccccc3[nH]2)ccc1Cl,active: 8.2 µM
22,Cc1nn(Cc2ccc(C(=O)Nc3ccccc3F)cc2)c(C)c1Cl,"inconclusive: 20.6 µM [inhibitor, single point]"
23,CN(C)c1ccc(N=C/C=C2\N(C)c3ccccc3C2(C)C)cc1,"inconclusive: 23.1 µM [activator, partial curve]"

# Two of these compounds, set out differently:
row | Structure (SMILES) | Potency
6 | COc1cccc(OCC(Cn2c(C)nc3ccccc32)OC(C)=O)c1 (stereo not drawn) | inconclusive: 16.4 µM [inhibitor, partial curve]
23 | CN(C)c1ccc(N=C/C=C2\N(C)c3ccccc3C2(C)C)cc1 | inconclusive: 23.1 µM [activator, partial curve]

# Further structures

row,Structure (SMILES),Potency
1,C=CCn1c(CNc2ccccc2)nnc1SCC(=O)N/N=C/c1ccc(O)cc1O,inactive
2,Cc1nc(CCN2C(=O)c3ccccc3C2=O)cs1,inactive
3,COC(=O)c1ccc(C(=O)OC)c(=O)[nH]1,"inconclusive: 29.1 µM [activator, partial curve, poor fit]"
4,COc1ccc(S(=O)(=O)Cc2ccc(C(=O)NCc3cccnc3)o2)cc1,active: 14.6 µM
5,Cc1ccc(-c2nnc(SCC(=O)N3CCCC3)o2)cc1,"inconclusive: 6.51 µM [activator, full curve]"
6,CCCC1(C(=O)OCC)NC(c2ccc(O)cc2)C2C(=O)N(c3cccc(C(C)=O)c3)C(=O)C21 (stereo not drawn),inactive
7,COc1cc2c(cc1O)C(SC)=NC(C)(C)C2,"inconclusive: 13 µM [activator, partial curve, poor fit]"
8,Cc1cc(SCc2ccc(F)cc2)nc(=O)[nH]1,"inconclusive: 20.6 µM [activator, single point]"
9,O=c1c2c(nc3cc(-c4cccc(F)c4)[nH]n13)CCC2,"inconclusive: 4.11 µM [activator, partial curve]"
10,Cc1ccsc1/C=N\NC(=O)c1n[nH]c2c1CCC2,"inconclusive: 0.731 µM [activator, partial curve]"
11,Cc1nc(-c2cccc(NC(=O)Cc3ccccc3)c2)cs1,"inconclusive: 29.1 µM [inhibitor, single point]"
12,CCC/C(C#Cc1ccsc1)=C1/c2ccccc2C(=O)N1c1ccccc1,"inconclusive: 0.651 µM [inhibitor, single point]"
13,CC(=O)C(Cc1ccccc1)NC(=O)CN1c2cccc3cccc(c23)S1(=O)=O (stereo not drawn),inactive
14,S=C(Nc1ccc(Cl)c(Cl)c1)NC1CCCCC1,"inconclusive: 6.51 µM [activator, single point]"
15,O=C(O)c1nc(-c2ccccc2)n(-c2ccccc2)n1,"inconclusive: 14.6 µM [activator, single point]"
16,CN(C(=O)CSc1nc(-c2ccccc2)cs1)C1CCS(=O)(=O)C1 (stereo not drawn),"inconclusive: 10.3 µM [activator, partial curve, poor fit]"
17,CC(OC(=O)CCCSc1nc2ccccc2s1)C(=O)NC(N)=O (stereo not drawn),inactive
18,COC(=O)C1C(c2ccccc2)C(C(=O)OCc2ccco2)C1c1ccccc1 (stereo not drawn),"inconclusive: 18.4 µM [inhibitor, single point]"
19,O=C(NCCn1cc(SCc2ccc(F)cc2)c2ccccc21)c1c(F)cccc1F,"inconclusive: 29.1 µM [inhibitor, single point]"
20,O=C(NNC(=O)C1C2CCC(C2)C1C(=O)O)c1ccc(Cl)cc1 (stereo not drawn),"inconclusive: 20.6 µM [activator, single point]"
21,O=C(CNc1cccc(F)c1)Nc1cccc(S(=O)(=O)N2CCCCC2)c1,"inconclusive: 29.1 µM [activator, single point]"
22,C[C@@]12C(=O)N(CC3CC3)CC(=O)N1[C@H](C1CC1)[C@@H]1C(=O)N(c3ccccc3)C(=O)[C@@H]12,inactive
